What all share (assay): anti-FLAG co-IP, LC-MS/MS
Experiment [1] addresses T1, Irr1 (Saccharomyces cerevisiae) (UniProt P40541).
T1 sequence (looked up): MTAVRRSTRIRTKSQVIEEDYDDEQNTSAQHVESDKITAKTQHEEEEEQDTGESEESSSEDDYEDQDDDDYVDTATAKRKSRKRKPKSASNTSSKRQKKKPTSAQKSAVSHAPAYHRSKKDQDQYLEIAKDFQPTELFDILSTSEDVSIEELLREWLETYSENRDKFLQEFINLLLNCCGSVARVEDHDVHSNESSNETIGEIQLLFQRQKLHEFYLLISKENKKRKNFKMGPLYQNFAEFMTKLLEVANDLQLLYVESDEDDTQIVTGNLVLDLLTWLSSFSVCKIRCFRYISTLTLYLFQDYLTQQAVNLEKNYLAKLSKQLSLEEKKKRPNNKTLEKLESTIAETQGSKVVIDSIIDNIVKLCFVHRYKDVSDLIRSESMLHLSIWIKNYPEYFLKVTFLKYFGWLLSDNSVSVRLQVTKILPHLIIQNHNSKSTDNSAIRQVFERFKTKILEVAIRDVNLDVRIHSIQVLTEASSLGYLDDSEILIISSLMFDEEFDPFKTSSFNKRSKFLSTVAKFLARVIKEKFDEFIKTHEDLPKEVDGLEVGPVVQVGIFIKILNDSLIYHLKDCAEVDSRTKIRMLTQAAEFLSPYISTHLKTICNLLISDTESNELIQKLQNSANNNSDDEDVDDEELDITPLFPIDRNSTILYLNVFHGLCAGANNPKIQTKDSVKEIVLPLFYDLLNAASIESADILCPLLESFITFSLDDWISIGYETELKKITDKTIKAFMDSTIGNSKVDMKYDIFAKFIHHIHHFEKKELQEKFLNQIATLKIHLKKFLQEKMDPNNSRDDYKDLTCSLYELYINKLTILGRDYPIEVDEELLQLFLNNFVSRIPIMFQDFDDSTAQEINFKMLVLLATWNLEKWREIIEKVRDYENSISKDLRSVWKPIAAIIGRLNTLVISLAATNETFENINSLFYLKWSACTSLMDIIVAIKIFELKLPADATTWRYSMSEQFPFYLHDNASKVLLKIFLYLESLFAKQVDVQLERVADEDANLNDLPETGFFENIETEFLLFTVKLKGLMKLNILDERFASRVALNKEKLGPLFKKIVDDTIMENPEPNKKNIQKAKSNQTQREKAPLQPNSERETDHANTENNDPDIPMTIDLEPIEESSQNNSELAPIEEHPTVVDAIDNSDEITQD

Experiment [2] has as its target T2, Ste7 (Saccharomyces cerevisiae) (UniProt P06784).
T2 sequence (looked up): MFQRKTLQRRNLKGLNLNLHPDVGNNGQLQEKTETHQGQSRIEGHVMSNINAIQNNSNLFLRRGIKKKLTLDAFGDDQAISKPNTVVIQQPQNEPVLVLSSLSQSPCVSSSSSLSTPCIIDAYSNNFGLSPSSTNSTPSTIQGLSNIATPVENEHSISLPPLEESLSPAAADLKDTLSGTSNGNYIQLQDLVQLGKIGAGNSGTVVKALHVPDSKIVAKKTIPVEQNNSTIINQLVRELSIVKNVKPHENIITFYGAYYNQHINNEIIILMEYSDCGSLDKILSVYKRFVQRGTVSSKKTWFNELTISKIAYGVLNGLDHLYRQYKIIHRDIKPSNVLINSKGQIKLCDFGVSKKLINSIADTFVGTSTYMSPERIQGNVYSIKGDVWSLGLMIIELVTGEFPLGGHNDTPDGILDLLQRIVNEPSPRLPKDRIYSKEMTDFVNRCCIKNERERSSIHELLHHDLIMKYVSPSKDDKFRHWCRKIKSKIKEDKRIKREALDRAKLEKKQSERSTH

In experiment [3] the target is T3, Ste12 (Saccharomyces cerevisiae) (UniProt P13574).
T3 sequence (looked up): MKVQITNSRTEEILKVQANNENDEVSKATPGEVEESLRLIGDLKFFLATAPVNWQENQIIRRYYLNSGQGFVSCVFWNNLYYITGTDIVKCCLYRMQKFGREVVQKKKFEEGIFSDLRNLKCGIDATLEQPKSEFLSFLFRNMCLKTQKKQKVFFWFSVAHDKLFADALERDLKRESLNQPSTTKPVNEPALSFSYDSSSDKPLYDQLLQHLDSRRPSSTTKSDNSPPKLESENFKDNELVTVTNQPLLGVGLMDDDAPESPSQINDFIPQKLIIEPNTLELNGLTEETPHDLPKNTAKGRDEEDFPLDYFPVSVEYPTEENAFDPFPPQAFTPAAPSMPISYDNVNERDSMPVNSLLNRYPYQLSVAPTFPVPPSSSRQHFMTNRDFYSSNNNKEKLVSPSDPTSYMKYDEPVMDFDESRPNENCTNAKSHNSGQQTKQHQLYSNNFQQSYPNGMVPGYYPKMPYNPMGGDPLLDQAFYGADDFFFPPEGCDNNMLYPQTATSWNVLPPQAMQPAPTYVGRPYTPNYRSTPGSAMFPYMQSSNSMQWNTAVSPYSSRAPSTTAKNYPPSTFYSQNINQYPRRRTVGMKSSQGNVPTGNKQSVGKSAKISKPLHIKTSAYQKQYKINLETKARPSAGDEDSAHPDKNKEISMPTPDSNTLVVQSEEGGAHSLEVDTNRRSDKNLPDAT

From patent US20030162221A1 come the findings set out here.

These are yes or no findings as the source states them, for the method shown. Binding seen in cells or lysates may run through a third protein. Some results given as binding are weak or reduced against the parent protein; the word gives no strength. Tags and fused reporters may be left off the sequences shown.

B1: Cdc5 (protein, Saccharomyces cerevisiae, UniProt P32562 1-705, looked up)
chain: MSLGPLKAINDKQLNTRSKLVHTPIKGNTADLVGKENHFKQTKRLDPNNDHHHQPAQKKKREKLSALCKTPPSLIKTRGKDYHRGHFLGEGGFARCFQIKDDSGEIFAAKTVAKASIKSEKTRKKLLSEIQIHKSMSHPNIVQFIDCFEDDSNVYILLEICPNGSLMELLKRRKVLTEPEVRFFTTQICGAIKYMHSRRVIHRDLKLGNIFFDSNYNLKIGDFGLAAVLANESERKYTICGTPNYIAPEVLMGKHSGHSFEVDIWSLGVMLYALLIGKPPFQARDVNTIYERIKCRDFSFPRDKPISDEGKILIRDILSLDPIERPSLTEIMDYVWFRGTFPPSIPSTVMSEAPNFEDIPEEQSLVNFKDCMEKSLLLESMSSDKIQRQKRDYISSIKSSIDKLEEYHQNRPFLPHSLSPGGTKQKYKEVVDIEAQRRLNDLAREARIRRAQQAVLRKELIATSTNVIKSEISLRILASECHLTLNGIVEAEAQYKMGGLPKSRLPKIKHPMIVTKWVDYSNKHGFSYQLSTEDIGVLFNNGTTVLRLADAEEFWYISYDDREGWVASHYLLSEKPRELSRHLEVVDFFAKYMKANLSRVSTFGREEYHKDDVFLRRYTRYKPFVMFELSDGTFQFNFKDHHKMAISDGGKLVTYISPSHESTTYPLVEVLKYGEIPGYPESNFREKLTLIKEGLKQKSTIVTVD
With B1, the binding entry in experiment [1] is given as “binds”.

B2: Kss1 (protein, Saccharomyces cerevisiae, UniProt P14681 1-368, looked up)
chain: MARTITFDIPSQYKLVDLIGEGAYGTVCSAIHKPSGIKVAIKKIQPFSKKLFVTRTIREIKLLRYFHEHENIISILDKVRPVSIDKLNAVYLVEELMETDLQKVINNQNSGFSTLSDDHVQYFTYQILRALKSIHSAQVIHRDIKPSNLLLNSNCDLKVCDFGLARCLASSSDSRETLVGFMTEYVATRWYRAPEIMLTFQEYTTAMDIWSCGCILAEMVSGKPLFPGRDYHHQLWLILEVLGTPSFEDFNQIKSKRAKEYIANLPMRPPLPWETVWSKTDLNPDMIDLLDKMLQFNPDKRISAAEALRHPYLAMYHDPSDEPEYPPLNLDDEFWKLDNKIMRPEEEEEVPIEMLKDMLYDELMKTME
As for B2, the binding result in experiment [2] and in experiment [3] was “binds” each time.
